The values below come from the M2OR odorant receptor database.

The entries are a selection whose mix differs from that of the whole data set. The calls were merged from several studies; some rest on single wells.

Holding throughout (details): stereoisomer not certain
One experiment has as its target T1, UniProt Q8VGJ3.
T1 sequence (whole entry): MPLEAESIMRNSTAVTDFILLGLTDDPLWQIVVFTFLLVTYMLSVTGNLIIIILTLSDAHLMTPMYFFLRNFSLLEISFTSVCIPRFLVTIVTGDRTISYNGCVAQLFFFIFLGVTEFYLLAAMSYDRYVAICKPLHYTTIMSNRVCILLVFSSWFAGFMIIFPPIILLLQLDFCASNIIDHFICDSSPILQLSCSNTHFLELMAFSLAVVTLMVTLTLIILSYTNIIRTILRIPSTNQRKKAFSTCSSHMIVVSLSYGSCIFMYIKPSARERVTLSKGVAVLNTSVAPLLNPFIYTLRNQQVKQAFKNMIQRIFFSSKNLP
The gist of the method: (§1)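 Whether a receptor–molecule pair is responsive (active) rests on the original authors' judgment that its measured signal was statistically different from baseline. Pairs without that judgment are non-responsive (inactive). Sources used varied assay methods, commonly transient luciferase assays in mammalian cell lines.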

In a further experiment the target is T2, UniProt Q8VGL0.
T2 sequence (whole entry): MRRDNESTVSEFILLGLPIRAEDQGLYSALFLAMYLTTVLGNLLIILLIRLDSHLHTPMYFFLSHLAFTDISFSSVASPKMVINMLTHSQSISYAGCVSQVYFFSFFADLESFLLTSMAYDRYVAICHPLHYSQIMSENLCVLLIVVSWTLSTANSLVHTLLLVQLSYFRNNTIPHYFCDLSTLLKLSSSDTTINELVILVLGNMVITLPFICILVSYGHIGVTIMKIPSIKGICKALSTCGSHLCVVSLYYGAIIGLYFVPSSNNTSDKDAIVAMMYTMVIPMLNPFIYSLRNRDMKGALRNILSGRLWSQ
The method in brief: as §1

A further experiment has as its target T3, UniProt Q8VGU3.
T3 sequence (whole entry): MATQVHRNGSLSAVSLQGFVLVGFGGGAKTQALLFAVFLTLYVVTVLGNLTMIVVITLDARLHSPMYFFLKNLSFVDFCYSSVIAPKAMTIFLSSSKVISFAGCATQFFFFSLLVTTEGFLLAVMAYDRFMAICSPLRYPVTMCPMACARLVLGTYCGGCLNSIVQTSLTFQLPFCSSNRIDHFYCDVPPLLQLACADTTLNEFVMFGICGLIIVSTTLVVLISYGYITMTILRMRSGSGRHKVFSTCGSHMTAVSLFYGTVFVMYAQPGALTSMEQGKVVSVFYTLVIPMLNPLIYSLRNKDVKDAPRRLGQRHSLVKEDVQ
The method in brief:
as §1

The next experiment concerns the target T4, UniProt Q8VGV7.
T4 sequence (whole entry): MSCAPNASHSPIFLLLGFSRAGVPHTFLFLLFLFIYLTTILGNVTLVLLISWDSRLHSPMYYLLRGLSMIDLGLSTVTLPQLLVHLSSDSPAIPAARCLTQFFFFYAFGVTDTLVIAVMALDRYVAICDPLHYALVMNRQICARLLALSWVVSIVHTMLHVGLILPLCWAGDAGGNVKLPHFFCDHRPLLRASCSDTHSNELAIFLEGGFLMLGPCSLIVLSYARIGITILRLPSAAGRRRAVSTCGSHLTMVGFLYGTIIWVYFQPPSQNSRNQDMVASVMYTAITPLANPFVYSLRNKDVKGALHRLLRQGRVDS
The method in brief:
as §1

For a further experiment, the target named is T5, UniProt Q8VGX3.
T5 sequence (whole entry): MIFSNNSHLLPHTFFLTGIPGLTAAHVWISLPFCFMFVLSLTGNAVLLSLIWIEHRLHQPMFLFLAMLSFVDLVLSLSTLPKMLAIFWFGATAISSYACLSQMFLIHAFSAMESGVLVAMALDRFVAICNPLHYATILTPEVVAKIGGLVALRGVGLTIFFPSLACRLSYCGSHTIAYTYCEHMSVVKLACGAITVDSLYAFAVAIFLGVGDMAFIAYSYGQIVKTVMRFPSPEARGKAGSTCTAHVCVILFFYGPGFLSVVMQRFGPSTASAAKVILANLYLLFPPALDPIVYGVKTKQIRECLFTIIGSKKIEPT
The gist of the method: as §1

The next experiment concerns the target T6, UniProt Q8VGX5.
T6 sequence (whole entry): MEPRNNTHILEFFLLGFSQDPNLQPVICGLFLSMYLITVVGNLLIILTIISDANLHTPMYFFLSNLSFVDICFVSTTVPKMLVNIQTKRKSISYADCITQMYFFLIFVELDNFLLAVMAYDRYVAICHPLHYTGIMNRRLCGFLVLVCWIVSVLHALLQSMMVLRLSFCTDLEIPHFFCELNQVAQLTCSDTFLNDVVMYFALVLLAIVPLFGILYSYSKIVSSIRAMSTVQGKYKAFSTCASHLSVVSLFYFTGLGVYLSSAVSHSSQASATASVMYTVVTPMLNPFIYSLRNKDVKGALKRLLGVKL
The method in brief: as §1

Another experiment concerns the target T7, UniProt Q8VGZ2.
T7 sequence (whole entry): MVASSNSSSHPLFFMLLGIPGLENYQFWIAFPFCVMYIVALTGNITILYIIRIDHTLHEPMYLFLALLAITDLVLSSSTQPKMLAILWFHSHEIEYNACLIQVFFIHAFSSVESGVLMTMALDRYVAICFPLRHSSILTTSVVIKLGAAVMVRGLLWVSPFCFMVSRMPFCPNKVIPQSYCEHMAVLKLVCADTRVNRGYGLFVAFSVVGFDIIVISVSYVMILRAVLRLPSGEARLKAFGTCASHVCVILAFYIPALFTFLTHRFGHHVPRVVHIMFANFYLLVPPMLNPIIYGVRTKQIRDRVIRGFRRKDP
The gist of the method: as §1
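Also: active if original authors judged signal statistically different from baseline.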

Take `CC(C)=CCCC(C)=CC=O`: the “odorant receptor agonist call” value with UniProt Q8VGJ3, with UniProt Q8VGL0, in the experiment with UniProt Q8VGU3, with UniProt Q8VGV7, with UniProt Q8VGX3 and with UniProt Q8VGZ2 was “inactive” each time. For the same compound, the “odorant receptor agonist call” value with UniProt Q8VGX5 was “active”.
